Data from the supplement of paper PMC12823440, “Inhibitors supercharge kinase turnover through native proteolytic circuits” (Nature, 2025).
Counter-ions that a name gives are not always drawn. The list shows a part of the results. Hit calls seldom repeat between salt and free forms of one compound.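 In K562 cells expressing nanoluciferase-fused kinases, luminescence was recorded at 4 h intervals between 2 and 18 h, normalized as percent of control with DMSO at 100% and a positive control at 0%. A significant (2 sigma) signal drop marks a time point as decreased. The authors' rule for a hit is not shown and takes in more than the number of time points.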

The chains behind the UniProt entries cited, without tags or fusion partners. Where a name states a change or a piece, a line headed by the entry shows the natural chain unless it says otherwise.
UniProt P00519, whole entry: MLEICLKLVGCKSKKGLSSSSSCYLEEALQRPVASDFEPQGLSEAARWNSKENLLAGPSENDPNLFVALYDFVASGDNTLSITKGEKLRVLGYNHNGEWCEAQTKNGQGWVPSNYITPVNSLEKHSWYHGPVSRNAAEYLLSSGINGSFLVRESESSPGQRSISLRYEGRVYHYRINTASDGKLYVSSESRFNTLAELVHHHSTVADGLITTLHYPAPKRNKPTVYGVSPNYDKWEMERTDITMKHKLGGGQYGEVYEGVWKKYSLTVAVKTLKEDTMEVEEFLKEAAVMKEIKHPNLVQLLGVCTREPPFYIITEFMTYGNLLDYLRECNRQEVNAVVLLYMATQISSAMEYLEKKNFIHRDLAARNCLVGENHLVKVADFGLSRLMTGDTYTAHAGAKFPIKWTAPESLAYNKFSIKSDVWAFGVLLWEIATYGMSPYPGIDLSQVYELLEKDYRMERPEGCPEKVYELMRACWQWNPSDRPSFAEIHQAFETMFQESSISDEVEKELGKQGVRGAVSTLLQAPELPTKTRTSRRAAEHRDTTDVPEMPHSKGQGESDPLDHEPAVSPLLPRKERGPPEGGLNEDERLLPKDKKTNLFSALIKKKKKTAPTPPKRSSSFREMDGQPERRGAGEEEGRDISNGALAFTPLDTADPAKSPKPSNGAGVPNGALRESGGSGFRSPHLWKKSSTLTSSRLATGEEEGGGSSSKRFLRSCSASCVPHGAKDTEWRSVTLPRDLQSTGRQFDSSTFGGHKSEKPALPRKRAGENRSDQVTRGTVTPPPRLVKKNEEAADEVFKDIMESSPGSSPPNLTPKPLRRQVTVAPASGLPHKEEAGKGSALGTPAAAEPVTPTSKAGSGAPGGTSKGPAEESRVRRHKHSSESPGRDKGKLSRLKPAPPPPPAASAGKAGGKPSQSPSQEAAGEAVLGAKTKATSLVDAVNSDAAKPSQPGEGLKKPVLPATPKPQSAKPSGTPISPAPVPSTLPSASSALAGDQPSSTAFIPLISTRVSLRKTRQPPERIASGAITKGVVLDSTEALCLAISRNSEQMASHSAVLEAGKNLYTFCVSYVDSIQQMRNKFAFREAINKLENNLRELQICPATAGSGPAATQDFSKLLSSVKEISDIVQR
UniProt P31749: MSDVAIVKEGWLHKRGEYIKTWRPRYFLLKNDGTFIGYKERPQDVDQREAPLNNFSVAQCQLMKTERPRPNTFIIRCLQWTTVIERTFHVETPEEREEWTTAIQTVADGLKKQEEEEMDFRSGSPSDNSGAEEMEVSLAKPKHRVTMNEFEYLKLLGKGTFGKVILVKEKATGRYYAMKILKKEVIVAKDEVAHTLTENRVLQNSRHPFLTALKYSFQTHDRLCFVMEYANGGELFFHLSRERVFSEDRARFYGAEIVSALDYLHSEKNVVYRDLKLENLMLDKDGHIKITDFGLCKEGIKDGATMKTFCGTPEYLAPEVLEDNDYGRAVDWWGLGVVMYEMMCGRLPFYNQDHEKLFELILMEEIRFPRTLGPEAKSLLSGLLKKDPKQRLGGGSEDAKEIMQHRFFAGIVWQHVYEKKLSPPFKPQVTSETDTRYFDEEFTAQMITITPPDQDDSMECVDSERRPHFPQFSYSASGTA
UniProt Q9UM73: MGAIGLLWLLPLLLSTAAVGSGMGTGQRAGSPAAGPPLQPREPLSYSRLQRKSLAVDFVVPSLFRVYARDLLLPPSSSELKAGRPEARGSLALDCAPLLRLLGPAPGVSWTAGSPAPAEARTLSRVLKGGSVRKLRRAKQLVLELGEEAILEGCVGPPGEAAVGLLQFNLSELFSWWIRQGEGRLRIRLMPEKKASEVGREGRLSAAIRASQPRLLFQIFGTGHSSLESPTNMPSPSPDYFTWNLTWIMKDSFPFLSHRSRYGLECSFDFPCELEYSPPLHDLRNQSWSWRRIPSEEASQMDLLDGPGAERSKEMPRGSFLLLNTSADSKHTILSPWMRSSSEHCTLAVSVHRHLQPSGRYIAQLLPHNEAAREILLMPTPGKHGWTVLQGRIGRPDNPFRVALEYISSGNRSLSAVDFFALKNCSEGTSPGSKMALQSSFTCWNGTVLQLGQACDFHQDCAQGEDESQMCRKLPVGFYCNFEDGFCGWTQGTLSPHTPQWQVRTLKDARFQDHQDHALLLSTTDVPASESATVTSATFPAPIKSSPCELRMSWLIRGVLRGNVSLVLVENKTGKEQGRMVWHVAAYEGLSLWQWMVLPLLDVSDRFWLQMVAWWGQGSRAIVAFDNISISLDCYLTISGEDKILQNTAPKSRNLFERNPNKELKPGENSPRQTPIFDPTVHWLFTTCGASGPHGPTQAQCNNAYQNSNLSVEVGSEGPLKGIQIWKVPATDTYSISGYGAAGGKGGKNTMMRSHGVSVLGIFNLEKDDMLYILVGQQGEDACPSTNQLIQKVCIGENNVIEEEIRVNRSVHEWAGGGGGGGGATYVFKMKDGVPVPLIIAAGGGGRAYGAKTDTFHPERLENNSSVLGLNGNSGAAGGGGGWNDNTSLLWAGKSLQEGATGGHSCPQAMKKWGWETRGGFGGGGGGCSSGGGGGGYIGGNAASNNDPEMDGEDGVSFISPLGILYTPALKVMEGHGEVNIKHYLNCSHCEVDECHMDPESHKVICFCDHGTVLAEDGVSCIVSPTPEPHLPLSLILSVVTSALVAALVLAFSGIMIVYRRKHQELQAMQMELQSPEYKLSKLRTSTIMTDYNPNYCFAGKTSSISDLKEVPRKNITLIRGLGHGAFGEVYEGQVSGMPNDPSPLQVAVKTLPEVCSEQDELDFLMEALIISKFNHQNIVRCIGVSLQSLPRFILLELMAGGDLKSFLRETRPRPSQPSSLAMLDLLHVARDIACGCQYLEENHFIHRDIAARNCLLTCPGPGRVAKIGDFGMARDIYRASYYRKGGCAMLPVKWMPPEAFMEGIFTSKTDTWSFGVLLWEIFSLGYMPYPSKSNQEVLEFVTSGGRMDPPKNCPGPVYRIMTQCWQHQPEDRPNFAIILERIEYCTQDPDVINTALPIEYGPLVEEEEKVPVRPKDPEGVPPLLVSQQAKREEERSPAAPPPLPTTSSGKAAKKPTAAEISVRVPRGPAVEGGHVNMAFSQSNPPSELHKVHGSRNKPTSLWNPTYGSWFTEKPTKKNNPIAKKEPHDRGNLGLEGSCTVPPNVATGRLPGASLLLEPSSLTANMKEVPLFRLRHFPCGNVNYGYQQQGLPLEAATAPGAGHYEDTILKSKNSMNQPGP
UniProt P10398: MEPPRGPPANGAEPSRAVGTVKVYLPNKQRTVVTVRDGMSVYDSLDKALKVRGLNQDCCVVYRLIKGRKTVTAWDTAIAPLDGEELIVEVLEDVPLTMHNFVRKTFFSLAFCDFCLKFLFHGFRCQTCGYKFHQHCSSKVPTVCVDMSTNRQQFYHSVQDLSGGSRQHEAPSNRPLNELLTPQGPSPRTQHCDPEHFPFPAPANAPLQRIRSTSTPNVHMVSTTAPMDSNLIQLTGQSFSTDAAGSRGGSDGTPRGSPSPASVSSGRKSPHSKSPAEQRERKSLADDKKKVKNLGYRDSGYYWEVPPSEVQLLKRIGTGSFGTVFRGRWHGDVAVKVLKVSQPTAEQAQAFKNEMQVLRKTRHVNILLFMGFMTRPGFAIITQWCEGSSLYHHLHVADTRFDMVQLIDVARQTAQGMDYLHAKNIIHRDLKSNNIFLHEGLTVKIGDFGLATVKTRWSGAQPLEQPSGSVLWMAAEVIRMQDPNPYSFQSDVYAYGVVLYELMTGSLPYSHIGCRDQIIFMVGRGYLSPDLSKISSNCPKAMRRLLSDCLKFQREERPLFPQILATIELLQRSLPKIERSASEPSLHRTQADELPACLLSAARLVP
UniProt O14965: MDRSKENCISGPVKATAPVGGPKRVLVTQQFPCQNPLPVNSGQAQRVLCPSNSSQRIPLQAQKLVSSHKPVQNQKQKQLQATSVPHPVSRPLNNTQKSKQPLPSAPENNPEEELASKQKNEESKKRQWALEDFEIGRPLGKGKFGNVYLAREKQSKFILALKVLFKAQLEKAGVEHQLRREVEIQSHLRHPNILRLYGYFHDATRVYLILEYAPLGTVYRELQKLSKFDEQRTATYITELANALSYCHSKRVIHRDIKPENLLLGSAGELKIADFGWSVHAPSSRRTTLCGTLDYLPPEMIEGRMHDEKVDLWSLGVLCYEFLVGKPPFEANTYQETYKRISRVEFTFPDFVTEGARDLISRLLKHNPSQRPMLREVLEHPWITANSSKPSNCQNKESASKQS
UniProt Q96GD4, whole entry: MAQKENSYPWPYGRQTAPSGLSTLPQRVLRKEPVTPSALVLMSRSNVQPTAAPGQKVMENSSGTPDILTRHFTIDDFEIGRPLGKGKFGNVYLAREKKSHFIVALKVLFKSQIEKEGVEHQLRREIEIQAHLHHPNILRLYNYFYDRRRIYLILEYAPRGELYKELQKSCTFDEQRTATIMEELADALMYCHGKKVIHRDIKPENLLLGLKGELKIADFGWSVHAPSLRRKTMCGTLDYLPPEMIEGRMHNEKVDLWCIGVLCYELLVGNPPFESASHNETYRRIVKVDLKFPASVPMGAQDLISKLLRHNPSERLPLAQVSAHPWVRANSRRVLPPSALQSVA
UniProt Q9UQB9: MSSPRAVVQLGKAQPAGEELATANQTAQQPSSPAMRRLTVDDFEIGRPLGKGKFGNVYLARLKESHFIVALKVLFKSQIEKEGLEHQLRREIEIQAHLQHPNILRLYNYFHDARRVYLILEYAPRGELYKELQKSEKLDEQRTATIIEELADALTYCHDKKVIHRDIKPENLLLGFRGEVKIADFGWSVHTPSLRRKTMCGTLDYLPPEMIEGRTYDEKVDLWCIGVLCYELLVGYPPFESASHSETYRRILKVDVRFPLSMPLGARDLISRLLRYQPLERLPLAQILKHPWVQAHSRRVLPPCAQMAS
UniProt P51451: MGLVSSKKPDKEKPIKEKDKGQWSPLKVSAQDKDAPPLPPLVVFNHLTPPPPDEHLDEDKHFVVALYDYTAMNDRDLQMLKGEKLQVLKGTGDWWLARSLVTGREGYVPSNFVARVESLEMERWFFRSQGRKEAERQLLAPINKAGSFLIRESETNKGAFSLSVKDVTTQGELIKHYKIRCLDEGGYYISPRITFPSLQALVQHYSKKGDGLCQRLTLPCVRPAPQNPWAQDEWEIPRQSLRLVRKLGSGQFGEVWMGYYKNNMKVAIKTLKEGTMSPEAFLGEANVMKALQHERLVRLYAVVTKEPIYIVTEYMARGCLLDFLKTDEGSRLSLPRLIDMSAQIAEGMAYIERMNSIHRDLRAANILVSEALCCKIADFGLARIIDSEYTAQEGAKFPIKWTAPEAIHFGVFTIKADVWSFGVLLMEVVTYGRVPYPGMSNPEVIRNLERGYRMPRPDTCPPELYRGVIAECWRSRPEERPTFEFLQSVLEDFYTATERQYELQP
UniProt P51813: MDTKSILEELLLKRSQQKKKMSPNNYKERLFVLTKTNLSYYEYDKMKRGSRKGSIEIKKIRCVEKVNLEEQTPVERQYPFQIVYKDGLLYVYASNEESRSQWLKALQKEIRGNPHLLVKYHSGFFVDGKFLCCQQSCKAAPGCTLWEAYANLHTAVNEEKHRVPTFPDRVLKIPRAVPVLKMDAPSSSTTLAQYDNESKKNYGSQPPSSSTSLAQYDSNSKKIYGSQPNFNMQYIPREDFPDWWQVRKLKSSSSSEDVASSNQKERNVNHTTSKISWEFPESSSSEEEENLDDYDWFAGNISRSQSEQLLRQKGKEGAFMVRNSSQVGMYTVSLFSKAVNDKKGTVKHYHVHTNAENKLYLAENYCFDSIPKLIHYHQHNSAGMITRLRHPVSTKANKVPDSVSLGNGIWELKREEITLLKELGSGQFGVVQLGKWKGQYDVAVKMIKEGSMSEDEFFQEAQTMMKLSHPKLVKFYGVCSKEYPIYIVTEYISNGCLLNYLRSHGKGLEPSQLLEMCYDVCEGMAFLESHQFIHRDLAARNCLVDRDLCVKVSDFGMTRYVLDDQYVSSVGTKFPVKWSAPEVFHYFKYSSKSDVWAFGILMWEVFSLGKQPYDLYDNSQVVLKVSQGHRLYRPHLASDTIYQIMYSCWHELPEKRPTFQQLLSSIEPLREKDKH

Tests used:
Assay in all cases: kinase-Nluc reporter destabilization hit call (1 = scored as downregulated) (binary); higher = compound decreases kinase abundance
Conditions in all cases: K562, 2-18 h
ABL1 = ABL1 (UniProt P00519)
AKT1 = AKT1 (UniProt P31749)
ALK = ALK (UniProt Q9UM73)
ARAF = ARAF (UniProt P10398)
AURKA = AURKA (UniProt O14965)
AURKB = AURKB (UniProt Q96GD4)
AURKC = AURKC (UniProt Q9UQB9)
BLK = BLK (UniProt P51451)
BMX = BMX (UniProt P51813)
BRAF = BRAF (UniProt P15056)

Measured: kinase-Nluc reporter destabilization hit call

Cc1ccc(NC(=O)c2ccc(CN3CCN(C)CC3)cc2)cc1Nc1nc(-c2cccnc2)cs1 [Masitinib]
inactive: ABL1; 2.5 µM 0 | AKT1; 2.5 µM 0 | ALK; 2.5 µM 0 | ARAF; 2.5 µM 0 | AURKA; 2.5 µM 0 | AURKB; 2.5 µM 0 | AURKC; 2.5 µM 0 | BLK; 2.5 µM 0 | BMX; 2.5 µM 0 | BRAF; 2.5 µM 0

CC(C)NC[C@@H](C(=O)N1CCN(c2ncnc3c2[C@H](C)C[C@H]3O)CC1)c1ccc(Cl)cc1 [Ipatasertib]
inactive: ABL1; 10 µM 0 | AKT1; 10 µM 0 | ALK; 10 µM 0 | ARAF; 10 µM 0 | AURKA; 10 µM 0 | AURKB; 10 µM 0 | AURKC; 10 µM 0 | BLK; 10 µM 0 | BMX; 10 µM 0 | BRAF; 10 µM 0

O=C(Nc1cnn2ccc(N3CCC[C@@H]3c3cc(F)ccc3F)nc12)N1CC[C@H](O)C1 [Larotrectinib]
inactive: ABL1; 10 µM 0 | AKT1; 10 µM 0 | ALK; 10 µM 0 | ARAF; 10 µM 0 | AURKA; 10 µM 0 | AURKB; 10 µM 0 | AURKC; 10 µM 0 | BLK; 10 µM 0 | BMX; 10 µM 0 | BRAF; 10 µM 0

C#Cc1cccc(Nc2ncnc3cc4c(cc23)OCCOCCOCCO4)c1 [Icotinib (Hydrochloride)]
inactive: ABL1; 10 µM 0 | AKT1; 10 µM 0 | ALK; 10 µM 0 | ARAF; 10 µM 0 | AURKA; 10 µM 0 | AURKB; 10 µM 0 | AURKC; 10 µM 0 | BLK; 10 µM 0 | BMX; 10 µM 0 | BRAF; 10 µM 0

C[C@H](Nc1cc(-c2cnn(C)c2)cc(Nc2cnccn2)n1)c1ccc(F)cc1 [Ilginatinib hydrochloride]
inactive: ABL1; 2.5 µM 0 | AKT1; 2.5 µM 0 | ALK; 2.5 µM 0 | ARAF; 2.5 µM 0 | AURKA; 2.5 µM 0 | AURKB; 2.5 µM 0 | AURKC; 2.5 µM 0 | BLK; 2.5 µM 0 | BMX; 2.5 µM 0 | BRAF; 2.5 µM 0

CC(=O)c1c(C)c2cnc(Nc3ccc(N4CCNCC4)cn3)nc2n(C2CCCC2)c1=O [Palbociclib (monohydrochloride)]
inactive: ABL1; 10 µM 0 | AKT1; 10 µM 0 | ALK; 10 µM 0 | ARAF; 10 µM 0 | AURKA; 10 µM 0 | AURKB; 10 µM 0 | AURKC; 10 µM 0 | BLK; 10 µM 0 | BMX; 10 µM 0 | BRAF; 10 µM 0

COc1cc2nccc(Oc3ccc(NC(=O)C4(C(=O)Nc5ccc(F)cc5)CC4)cc3)c2cc1OC [Cabozantinib (S-malate)]
inactive: ABL1; 10 µM 0 | AKT1; 10 µM 0 | ALK; 10 µM 0 | ARAF; 10 µM 0 | AURKA; 10 µM 0 | AURKB; 10 µM 0 | AURKC; 10 µM 0 | BLK; 10 µM 0 | BMX; 10 µM 0 | BRAF; 10 µM 0

c1cc(-c2cnn3cc(-c4ccc(OCCN5CCCCC5)cc4)cnc23)ccn1 [Dorsomorphin (dihydrochloride)]
inactive: ABL1; 2.5 µM 0 | AKT1; 2.5 µM 0 | ALK; 2.5 µM 0 | ARAF; 2.5 µM 0 | AURKA; 2.5 µM 0 | AURKB; 2.5 µM 0 | AURKC; 2.5 µM 0 | BLK; 2.5 µM 0 | BMX; 2.5 µM 0 | BRAF; 2.5 µM 0

Cc1cc(Nc2ncc(Cl)c(Nc3ccccc3S(=O)(=O)C(C)C)n2)c(OC(C)C)cc1C1CCNCC1 [Ceritinib]
inactive: ABL1; 2.5 µM 0 | AKT1; 2.5 µM 0 | ALK; 2.5 µM 0 | ARAF; 2.5 µM 0 | AURKA; 2.5 µM 0 | AURKB; 2.5 µM 0 | AURKC; 2.5 µM 0 | BLK; 2.5 µM 0 | BMX; 2.5 µM 0 | BRAF; 2.5 µM 0

CCN(CC)CC(=O)Nc1c(C)cccc1C [Lidocaine (hydrochloride)]
inactive: ABL1; 10 µM 0 | AKT1; 10 µM 0 | ALK; 10 µM 0 | ARAF; 10 µM 0 | AURKA; 10 µM 0 | AURKB; 10 µM 0 | AURKC; 10 µM 0 | BLK; 10 µM 0 | BMX; 10 µM 0 | BRAF; 10 µM 0

COc1cc2c(-c3cnn4cc(N5CCC(N6CCN(C)CC6)CC5)cnc34)ccnc2cc1F
inactive: ABL1; 10 µM 0 | AKT1; 10 µM 0 | ALK; 10 µM 0 | ARAF; 10 µM 0 | AURKA; 10 µM 0 | AURKB; 10 µM 0 | AURKC; 10 µM 0 | BLK; 10 µM 0 | BMX; 10 µM 0 | BRAF; 10 µM 0

COc1ccnc(C[S+]([O-])c2nc3cc(-n4cccc4)ccc3[nH]2)c1C (stereo not given) [Ilaprazole (sodium)]
inactive: ABL1; 10 µM 0 | AKT1; 10 µM 0 | ALK; 10 µM 0 | ARAF; 10 µM 0 | AURKA; 10 µM 0 | AURKB; 10 µM 0 | AURKC; 10 µM 0 | BLK; 10 µM 0 | BMX; 10 µM 0 | BRAF; 10 µM 0

CS(=O)(=O)N1CCN(Cc2cc3nc(-c4cccc5[nH]ncc45)nc(N4CCOCC4)c3s2)CC1 [Pictilisib (dimethanesulfonate)]
inactive: ABL1; 10 µM 0 | AKT1; 10 µM 0 | ALK; 10 µM 0 | ARAF; 10 µM 0 | AURKA; 10 µM 0 | AURKB; 10 µM 0 | AURKC; 10 µM 0 | BLK; 10 µM 0 | BMX; 10 µM 0 | BRAF; 10 µM 0

CN(C)C/C=C/C(=O)Nc1cc2c(Nc3ccc(F)c(Cl)c3)ncnc2cc1O[C@H]1CCOC1 [Afatinib (dimaleate)]
inactive: ABL1; 2.5 µM 0 | AKT1; 2.5 µM 0 | ALK; 2.5 µM 0 | ARAF; 2.5 µM 0 | AURKA; 2.5 µM 0 | AURKB; 2.5 µM 0 | AURKC; 2.5 µM 0 | BLK; 2.5 µM 0 | BMX; 2.5 µM 0 | BRAF; 2.5 µM 0

O=C(O)c1ccc2c(c1)nc(Nc1cccc(Cl)c1)c1ccncc12 [Silmitasertib (sodium salt)]
active: ABL1; 10 µM 1
inactive: AKT1; 10 µM 0 | ALK; 10 µM 0 | ARAF; 10 µM 0 | AURKA; 10 µM 0 | AURKB; 10 µM 0 | AURKC; 10 µM 0 | BLK; 10 µM 0 | BMX; 10 µM 0 | BRAF; 10 µM 0

C=CC(=O)Nc1cc(Nc2nccc(-c3cn(C4CC4)c4ccccc34)n2)c(OC)cc1N(C)CCN(C)C [Almonertinib (hydrochloride)]
inactive: ABL1; 2.5 µM 0 | AKT1; 2.5 µM 0 | ALK; 2.5 µM 0 | ARAF; 2.5 µM 0 | AURKA; 2.5 µM 0 | AURKB; 2.5 µM 0 | AURKC; 2.5 µM 0 | BLK; 2.5 µM 0 | BMX; 2.5 µM 0 | BRAF; 2.5 µM 0

OCCn1cc(-c2cnc3nnn(Cc4ccc5ncccc5c4)c3n2)cn1
inactive: ABL1; 10 µM 0 | AKT1; 10 µM 0 | ALK; 10 µM 0 | ARAF; 10 µM 0 | AURKA; 10 µM 0 | AURKB; 10 µM 0 | AURKC; 10 µM 0 | BLK; 10 µM 0 | BMX; 10 µM 0 | BRAF; 10 µM 0

C=CC(=O)Nc1cc(Nc2ncc(C(=O)OC(C)C)c(-c3cn(C)c4ccccc34)n2)c(OC)cc1N(C)CCN(C)C [Mobocertinib]
inactive: ABL1; 10 µM 0 | AKT1; 10 µM 0 | ALK; 10 µM 0 | ARAF; 10 µM 0 | AURKA; 10 µM 0 | AURKB; 10 µM 0 | AURKC; 10 µM 0 | BLK; 10 µM 0 | BMX; 10 µM 0 | BRAF; 10 µM 0

COc1cc2c(cc1OC)-c1c(C)c3ccc(OC)c(OC)c3c[n+]1CC2 [Dehydrocorydaline (chloride)]
inactive: ABL1; 10 µM 0 | AKT1; 10 µM 0 | ALK; 10 µM 0 | ARAF; 10 µM 0 | AURKA; 10 µM 0 | AURKB; 10 µM 0 | AURKC; 10 µM 0 | BLK; 10 µM 0 | BMX; 10 µM 0 | BRAF; 10 µM 0

C=CC(=O)Nc1cc(Nc2nccc(-c3cn(C)c4ccccc34)n2)c(OC)cc1N(C)CCN(C)C [Osimertinib mesylate]
inactive: ABL1; 2.5 µM 0 | AKT1; 2.5 µM 0 | ALK; 2.5 µM 0 | ARAF; 2.5 µM 0 | AURKA; 2.5 µM 0 | AURKB; 2.5 µM 0 | AURKC; 2.5 µM 0 | BMX; 2.5 µM 0 | BRAF; 2.5 µM 0
active: BLK; 2.5 µM 1

FC(F)(F)c1ccc(CNc2ccc(Cc3c[nH]c4ncc(Cl)cc34)cn2)cn1 [Pexidartinib (hydrochloride)]
inactive: ABL1; 10 µM 0 | AKT1; 10 µM 0 | ALK; 10 µM 0 | ARAF; 10 µM 0 | AURKA; 10 µM 0 | AURKB; 10 µM 0 | AURKC; 10 µM 0 | BLK; 10 µM 0 | BMX; 10 µM 0 | BRAF; 10 µM 0

CN1CCCN(C(=O)c2cccc(-c3ccc(/C=C4/C(=O)Nc5ccc(Cl)cc54)o3)c2)CC1 [CX-6258 (hydrochloride)]
inactive: ABL1; 2.5 µM 0 | AKT1; 2.5 µM 0 | ALK; 2.5 µM 0 | ARAF; 2.5 µM 0 | AURKA; 2.5 µM 0 | AURKB; 2.5 µM 0 | AURKC; 2.5 µM 0 | BLK; 2.5 µM 0 | BMX; 2.5 µM 0 | BRAF; 2.5 µM 0

CN(C)C(=N)NC(=N)N [Metformin (hydrochloride)]
inactive: ABL1; 10 µM 0 | AKT1; 10 µM 0 | ALK; 10 µM 0 | ARAF; 10 µM 0 | AURKA; 10 µM 0 | AURKB; 10 µM 0 | AURKC; 10 µM 0 | BLK; 10 µM 0 | BMX; 10 µM 0 | BRAF; 10 µM 0

C#Cc1cccc(Nc2ncnc3cc(OCCOC)c(OCCOC)cc23)c1 [Erlotinib]
inactive: ABL1; 10 µM 0 | AKT1; 10 µM 0 | ALK; 10 µM 0 | ARAF; 10 µM 0 | AURKA; 10 µM 0 | AURKB; 10 µM 0 | AURKC; 10 µM 0 | BLK; 10 µM 0 | BMX; 10 µM 0 | BRAF; 10 µM 0

CCS(=O)(=O)N1CCN(c2ccc(Nc3ncc(C(N)=O)c(NC4CC4)n3)cc2)CC1 [Cerdulatinib]
inactive: ABL1; 10 µM 0 | AKT1; 10 µM 0 | ALK; 10 µM 0 | ARAF; 10 µM 0 | AURKA; 10 µM 0 | AURKB; 10 µM 0 | AURKC; 10 µM 0 | BLK; 10 µM 0 | BMX; 10 µM 0 | BRAF; 10 µM 0

C#Cc1cccc(Nc2ncnc3cc(OCCOC)c(OCCOC)cc23)c1 [Erlotinib (Hydrochloride)]
inactive: ABL1; 10 µM 0 | AKT1; 10 µM 0 | ALK; 10 µM 0 | ARAF; 10 µM 0 | AURKA; 10 µM 0 | AURKB; 10 µM 0 | AURKC; 10 µM 0 | BLK; 10 µM 0 | BMX; 10 µM 0 | BRAF; 10 µM 0

Quoted from the listing (2 entries):
CCS(=O)(=O)N1CCN(c2ccc(Nc3ncc(C(N)=O)c(NC4CC4)n3)cc2)CC1 [Cerdulatinib]
inactive: ABL1; 10 µM 0 | AKT1; 10 µM 0 | ALK; 10 µM 0 | ARAF; 10 µM 0 | AURKA; 10 µM 0 | AURKB; 10 µM 0 | AURKC; 10 µM 0 | BLK; 10 µM 0 | BMX; 10 µM 0 | BRAF; 10 µM 0

C#Cc1cccc(Nc2ncnc3cc(OCCOC)c(OCCOC)cc23)c1 [Erlotinib (Hydrochloride)]
inactive: ABL1; 10 µM 0 | AKT1; 10 µM 0 | ALK; 10 µM 0 | ARAF; 10 µM 0 | AURKA; 10 µM 0 | AURKB; 10 µM 0 | AURKC; 10 µM 0 | BLK; 10 µM 0 | BMX; 10 µM 0 | BRAF; 10 µM 0

(further entries)

CC(=O)c1c(C)c2cnc(Nc3ccc(N4CCNCC4)cn3)nc2n(C2CCCC2)c1=O [Palbociclib (isethionate)]
inactive: ABL1; 10 µM 0 | AKT1; 10 µM 0 | ALK; 10 µM 0 | ARAF; 10 µM 0 | AURKA; 10 µM 0 | AURKB; 10 µM 0 | AURKC; 10 µM 0 | BLK; 10 µM 0 | BMX; 10 µM 0 | BRAF; 10 µM 0

O=C(c1ccc(F)c(F)c1Nc1ccc(I)cc1F)N1CC(O)([C@@H]2CCCCN2)C1 [Cobimetinib]
inactive: ABL1; 10 µM 0 | AKT1; 10 µM 0 | ALK; 10 µM 0 | ARAF; 10 µM 0 | AURKA; 10 µM 0 | AURKB; 10 µM 0 | AURKC; 10 µM 0 | BLK; 10 µM 0 | BMX; 10 µM 0 | BRAF; 10 µM 0

COc1ccc2c(c1)C(c1ccc(F)cc1)=C(CN1CCCC1)CO2 [AX-024 hydrochloride]
inactive: ABL1; 10 µM 0 | AKT1; 10 µM 0 | ALK; 10 µM 0 | ARAF; 10 µM 0 | AURKA; 10 µM 0 | AURKB; 10 µM 0 | AURKC; 10 µM 0 | BLK; 10 µM 0 | BMX; 10 µM 0 | BRAF; 10 µM 0
